Consider one molecule from PMC9932110.

This test addresses T1, Maea (mouse) (UniProt Q4VC33).
T1 sequence: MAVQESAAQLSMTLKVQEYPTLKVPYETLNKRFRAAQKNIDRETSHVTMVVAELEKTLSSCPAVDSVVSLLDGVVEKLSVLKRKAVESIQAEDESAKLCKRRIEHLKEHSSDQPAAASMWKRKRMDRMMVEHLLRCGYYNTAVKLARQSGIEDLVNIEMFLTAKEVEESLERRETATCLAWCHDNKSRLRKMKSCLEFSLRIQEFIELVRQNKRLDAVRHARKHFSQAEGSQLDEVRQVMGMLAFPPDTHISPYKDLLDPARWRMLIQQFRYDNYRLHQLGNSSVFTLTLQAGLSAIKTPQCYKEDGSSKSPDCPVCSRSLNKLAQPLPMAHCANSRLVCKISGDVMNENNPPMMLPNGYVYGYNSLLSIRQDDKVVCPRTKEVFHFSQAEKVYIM
The test is described as follows: SEC; Tcat complex co-expressed in Hi5 insect cells and co-purified by nickel affinity and SEC; both purified. Background: In gel filtration, larger molecules generally elute earlier.

Results are given in words; binding and its absence hold for the method and conditions named. Some entries that bind do so weakly or less than the wild type.

B1: Rmnd5a (protein, UniProt Q80YQ8 1-391)
chain: MDQCVTVERELEKVLHKFSGYGQLCERGLEELIDYTGGLKHEILQSHGQDAELSGTLSLVLTQCCKRIKDTVQKLASDHKDIHSSVSRVGKAIDKNFDSDISSVGIDGCWQADSQRLLNEVMVEHFFRQGMLDVAEELCQESGLSVDPSQKEPFVELNRILEALKVRVLRPALEWAVSNREMLIAQNSSLEFKLHRLYFISLLMGGTTNQREALQYAKNFQPFALNHQKDIQVLMGSLVYLRQGIENSPYVHLLDANQWADICDIFTRDACALLGLSVESPLSVSFSAGCVALPALINIKAVIEQRQCTGVWNQKDELPIEVDLGKKCWYHSIFACPILRQQTTDNNPPMKLVCGHIISRDALNKMFNGSKLKCPYCPMEQSPGDAKQIFF
Consider B1, for which the binding result is on record as “binds”.
